Results: publication PMC1447668, “Foxp3 Represses Retroviral Transcription by Targeting Both NF-κB and CREB Pathways” (PLoS Pathogens, 2006)
These are yes or no findings as the source states them, for the method shown. Binding seen in cells or lysates may run through a third protein. Some binding calls cover weakened binding; strength is not graded here.

The chains behind the UniProt entries cited, without tags or fusion partners.
UniProt Q09472: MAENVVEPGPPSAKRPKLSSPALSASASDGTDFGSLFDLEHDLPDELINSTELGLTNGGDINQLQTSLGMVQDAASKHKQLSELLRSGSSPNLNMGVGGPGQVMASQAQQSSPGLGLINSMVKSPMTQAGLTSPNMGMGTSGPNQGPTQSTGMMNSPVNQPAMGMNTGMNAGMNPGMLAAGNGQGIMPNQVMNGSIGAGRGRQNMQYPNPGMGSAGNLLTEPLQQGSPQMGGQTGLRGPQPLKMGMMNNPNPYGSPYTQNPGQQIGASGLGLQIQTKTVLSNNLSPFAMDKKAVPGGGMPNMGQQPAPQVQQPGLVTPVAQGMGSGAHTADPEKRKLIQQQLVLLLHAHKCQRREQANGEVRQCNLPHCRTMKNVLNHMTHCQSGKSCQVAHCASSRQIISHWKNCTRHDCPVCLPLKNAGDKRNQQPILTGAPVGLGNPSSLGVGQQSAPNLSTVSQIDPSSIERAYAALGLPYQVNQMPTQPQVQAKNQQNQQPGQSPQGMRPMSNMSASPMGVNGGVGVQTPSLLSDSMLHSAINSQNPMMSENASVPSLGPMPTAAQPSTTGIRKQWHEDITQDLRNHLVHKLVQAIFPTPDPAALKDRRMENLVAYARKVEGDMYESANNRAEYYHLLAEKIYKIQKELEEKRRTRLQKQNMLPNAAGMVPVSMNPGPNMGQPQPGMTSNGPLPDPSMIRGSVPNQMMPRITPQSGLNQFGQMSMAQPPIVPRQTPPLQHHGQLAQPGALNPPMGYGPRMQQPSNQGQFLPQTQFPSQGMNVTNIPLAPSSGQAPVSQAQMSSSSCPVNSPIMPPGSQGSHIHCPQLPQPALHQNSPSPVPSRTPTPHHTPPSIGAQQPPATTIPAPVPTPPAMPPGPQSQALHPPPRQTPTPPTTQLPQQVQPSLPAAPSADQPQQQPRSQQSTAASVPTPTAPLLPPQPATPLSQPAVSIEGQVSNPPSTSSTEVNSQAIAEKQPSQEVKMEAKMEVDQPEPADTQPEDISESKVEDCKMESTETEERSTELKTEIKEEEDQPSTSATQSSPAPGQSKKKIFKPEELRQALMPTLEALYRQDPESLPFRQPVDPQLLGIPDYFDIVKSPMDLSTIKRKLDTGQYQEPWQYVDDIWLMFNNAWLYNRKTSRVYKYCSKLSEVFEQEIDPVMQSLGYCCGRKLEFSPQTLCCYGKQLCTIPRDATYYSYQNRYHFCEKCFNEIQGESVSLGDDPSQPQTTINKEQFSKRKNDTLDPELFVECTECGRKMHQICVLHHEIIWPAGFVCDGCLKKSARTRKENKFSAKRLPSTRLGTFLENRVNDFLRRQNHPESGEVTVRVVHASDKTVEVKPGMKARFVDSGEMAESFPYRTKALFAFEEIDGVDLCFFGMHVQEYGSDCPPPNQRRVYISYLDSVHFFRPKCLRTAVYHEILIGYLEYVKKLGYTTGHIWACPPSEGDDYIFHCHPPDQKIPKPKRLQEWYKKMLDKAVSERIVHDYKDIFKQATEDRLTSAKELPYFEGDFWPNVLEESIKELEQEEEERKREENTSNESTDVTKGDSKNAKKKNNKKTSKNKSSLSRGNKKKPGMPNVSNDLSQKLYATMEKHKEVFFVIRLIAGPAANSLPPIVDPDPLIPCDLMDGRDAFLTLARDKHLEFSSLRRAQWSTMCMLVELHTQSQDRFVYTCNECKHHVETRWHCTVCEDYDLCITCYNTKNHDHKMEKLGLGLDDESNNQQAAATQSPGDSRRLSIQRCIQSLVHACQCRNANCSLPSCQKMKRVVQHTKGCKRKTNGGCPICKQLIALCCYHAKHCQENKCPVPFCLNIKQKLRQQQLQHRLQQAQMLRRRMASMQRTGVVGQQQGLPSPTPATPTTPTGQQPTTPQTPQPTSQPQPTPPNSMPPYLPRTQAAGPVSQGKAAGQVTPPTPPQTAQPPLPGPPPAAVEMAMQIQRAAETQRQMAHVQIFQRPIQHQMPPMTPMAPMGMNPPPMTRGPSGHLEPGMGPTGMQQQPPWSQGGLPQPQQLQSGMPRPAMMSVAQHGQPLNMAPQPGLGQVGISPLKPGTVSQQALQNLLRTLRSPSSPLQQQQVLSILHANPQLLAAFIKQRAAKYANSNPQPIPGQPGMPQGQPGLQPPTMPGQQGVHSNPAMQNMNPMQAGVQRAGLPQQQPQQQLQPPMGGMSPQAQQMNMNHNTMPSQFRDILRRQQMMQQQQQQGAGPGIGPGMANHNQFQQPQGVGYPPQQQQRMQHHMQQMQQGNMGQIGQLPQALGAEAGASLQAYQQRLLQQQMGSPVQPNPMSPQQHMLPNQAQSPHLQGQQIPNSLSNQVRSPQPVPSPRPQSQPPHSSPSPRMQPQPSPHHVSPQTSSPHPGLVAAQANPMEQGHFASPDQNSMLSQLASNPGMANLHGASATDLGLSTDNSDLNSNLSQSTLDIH

Biological target: coactivator protein p300-HA (UniProt Q09472)
Assay: co-IP; whole-cell extracts (RIPA buffer) of HEK 293T cells co-transfected with Foxp3 and p300-HA; precipitated with anti-HA monoclonal antibody and protein A/G plus-agarose overnight, washed four times with RIPA; blotted with anti-Foxp3 (ab10563)

binding: binds
B1: human Foxp3 (natural protein, UniProt Q9BZS1 1-431, looked up)
chain: MPNPRPGKPSAPSLALGPSPGASPSWRAAPKASDLLGARGPGGTFQGRDLRGGAHASSSSLNPMPPSQLQLPTLPLVMVAPSGARLGPLPHLQALLQDRPHFMHQLSTVDAHARTPVLQVHPLESPAMISLTPPTTATGVFSLKARPGLPPGINVASLEWVSREPALLCTFPNPSAPRKDSTLSAVPQSSYPLLANGVCKWPGCEKVFEEPEDFLKHCQADHLLDEKGRAQCLLQREMVQSLEQQLVLEKEKLSAMQAHLAGKMALTKASSVASSDKGSCCIVAAGSQGPVVPAWSGPREAPDSLFAVRRHLWGSHGNSTFPEFLHNMDYFKFHNMRPPFTYATLIRWAILEAPEKQRTLNEIYHWFTRMFAFFRNHPATWKNAIRHNLSLHKCFVRVESEKGAVWTVDELEFRKKRSQRPSRCSNPTPGP
